Results published in paper PMC2954226, “Structure of the γ-D-glutamyl-L-diamino acid endopeptidase YkfC from Bacillus cereus in complex with L-Ala-γ-D-Glu: insights into substrate recognition by NlpC/P60 cysteine peptidases” (Acta Crystallographica Section F: Structural Biology and …, 2010).
These are yes or no findings as the source states them, for the method shown.

Target: γ-D-glutamyl-L-diamino acid endopeptidase YkfC from Bacillus cereus (Bacillus cereus NRS248 ATCC 10987) (UniProt Q736M3)
Experiment: SEC; analytical size-exclusion chromatography, 0.8 x 30 cm Shodex Protein KW-803 column pre-calibrated with gel-filtration standards; both purified

binding: no binding
B1: γ-D-glutamyl-L-diamino acid endopeptidase YkfC from Bacillus cereus (enzyme, UniProt Q736M3 24-333)
chain: EEKKDSKAFIDVSAATLWTAPDSLRPIDVPSATNPVDLWKWTKSMTLDEKLWLTNANKLETQALLGQEVTVVDKKGDWVKVLVHGQPTPRNEEGYPGWMPEKQLTYNQEFADKTNEPFVLVTKPTAILYINPSEKHKSLEVSYNTRLPLLSEDTISYRVLLPNGQKAWLRKNDGTFYRSQNDIPTPAADDLINTGKMFLGLPYIWAGTSGFGFDCSGFTHTIYKSHGITIPRDSGPQSRNGVAVDKEHLQKGDLIFFAHDQGKGSVHHVAMYIGDGNMIHSPRAERSVEIIPLNTPGYIEEYAGARRYLP
modifications: selenomethionine derivative; catalytic Cys238 oxidized (OCS238) in the crystal
